Reference: the supplement of paper PMC9135407
Where “and” joins values, the source holds several entries; their conditions need not be identical. Equal entries are not always repeated. Structures can show the parent of a compound that is named as a salt. ± gives the standard deviation of the averaged measurements. The list shows a part of the results. Baselines shift from plate to plate; read single values as rough.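 Assay uses culture-activated primary human stellate myofibroblasts; lipid droplet recovery indicates inactivation. Measured: proportion of Hoechst-counted cells over a plate-specific Bodipy cutoff, duplicate wells, DMSO and nortriptyline as per-plate negative and positive controls. A hit scores, control-normalized, above the plate's top-tenth-percentile nortriptyline wells or ranks among its three best wells. Final well concentrations not reported.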

System: primary human hepatic stellate cells (donor 1)
Test: percent Bodipy-positive cells; higher = more lipid droplet accumulation
Conditions: 48 h
[1] = library stock concentration: 3.33 mM
[2] = library stock concentration: 10 mM
[3] = library stock concentration: 1 mM
[4] = library stock concentration: 80 uM
[5] = library stock concentration: 400 uM
[6] = library stock concentration: 2 mM

NCc1c[nH]c(=S)n1C1CCc2c(F)cc(F)cc2C1 [(R)-Nepicastat HCl]
percent Bodipy-positive cells [1]: 25.1 ± 7.7%
percent Bodipy-positive cells [2]: 63.6 ± 0.68%

CC1COc2c(N3CCN(C)CC3)c(F)cc3c(=O)c(C(=O)O)cn1c23 (stereo not given) [Ofloxacin]
percent Bodipy-positive cells: 23.6 ± 2.6%
percent Bodipy-positive cells [2]: 16.4% and 25.1%

CCCCC[C@@H](O)/C=C/[C@@H]1[C@H](C/C=C\CCCC(=O)O)[C@@H](O)C[C@H]1O [8-iso-15(R)-Prostaglandin F2.alpha.]
percent Bodipy-positive cells [3]: 19.1 ± 9.4%

CCCCC/C=C\C/C=C\C/C=C\C/C=C\CCCCNC(=O)c1ccc(O)cc1
percent Bodipy-positive cells [3]: 7.27 ± 3.8%

CN(C)CCCCCCOc1ccc(-n2ccnc2)cc1
percent Bodipy-positive cells [3]: 12.7% and 7.43%

CN1CCN(c2cc3c(cc2F)c(=O)c(C(=O)O)cn3-c2ccc(F)cc2)CC1
percent Bodipy-positive cells [2]: 23.8 ± 7.5%

O=C(O)CCCC[C@@H]1SC[C@@H]2NC(=O)N[C@@H]21 [Biotin (Vitamin B7)]
percent Bodipy-positive cells [1]: 10.9 ± 1.2%
percent Bodipy-positive cells [2]: 28.9 ± 20%

O=C(O)CCCC[C@@H]1SC[C@@H]2NC(=O)N[C@@H]21 [Biotin]
percent Bodipy-positive cells: 21.5 ± 2.1%
percent Bodipy-positive cells [2]: 12.7 ± 2.3%

CC(=O)O.N=C(N)N/N=C/c1c(Cl)cccc1Cl [Guanabenz acetate]
percent Bodipy-positive cells [2]: 91.86 ± 0.19%

CCOC(=O)Nc1ccc(NCc2ccc(F)cc2)nc1N [Flupirtine maleate]
percent Bodipy-positive cells [1]: 14.2 ± 1.9%
percent Bodipy-positive cells [2]: 43.9% and 52.9%

COCC(=O)Nc1c(I)c(C(=O)NCC(O)CO)c(I)c(C(=O)N(C)CC(O)CO)c1I (stereo not given) [Iopromide]
percent Bodipy-positive cells: 7.34 ± 2.2%

C[C@@]1(O)CCOC(=O)C1 [Mevalonic-D, L acid lactone]
percent Bodipy-positive cells: 8.9 ± 0.58%

Cn1nc2c3c(cccc31)C(=O)c1ccccc1-2 [JNK Inhibitor, Negative Control]
percent Bodipy-positive cells [1]: 14.9 ± 4.2%

C[C@@]1(c2cc(-c3cncnc3)c(F)cc2F)CCSC(N)=N1
percent Bodipy-positive cells [1]: 10.1 ± 2.6%
percent Bodipy-positive cells [2]: 21.5 ± 7.2%

C[C@H]1Oc2cc(cnc2N)-c2c(nn(C)c2C#N)CN(C)C(=O)c2ccc(F)cc21
percent Bodipy-positive cells [4]: 6.84 ± 3.3%
percent Bodipy-positive cells [5]: 6.87 ± 2.3%
percent Bodipy-positive cells [6]: 4.21 ± 0.93%
percent Bodipy-positive cells [2]: 5.45 ± 2.3%

Cn1c(=O)c2c(ncn2CCO)n(C)c1=O [Etofylline]
percent Bodipy-positive cells: 26.3 ± 6.1%

CCc1cnn2c(NCc3ccc[n+]([O-])c3)cc(N3CCCC[C@H]3CCO)nc12
percent Bodipy-positive cells [1]: 55.1 ± 4.6%
percent Bodipy-positive cells [2]: 62.3 ± 3.4%

CCc1cnn2c(NCc3ccc[n+]([O-])c3)cc(N3CCCC[C@H]3CCO)nc12 [Dinaciclib]
percent Bodipy-positive cells [4]: 39.2 ± 5.8%
percent Bodipy-positive cells [5]: 38.9 ± 9.2%
percent Bodipy-positive cells [6]: 44 ± 2.4%
percent Bodipy-positive cells [2]: 56.8 ± 2%

O=C1NC(=O)[C@@H](c2cn3c4c(cccc24)CCC3)[C@@H]1c1c[nH]c2ccccc12 [Tivantinib]
percent Bodipy-positive cells [4]: 15.3 ± 3%
percent Bodipy-positive cells [5]: 27.5 ± 7.5%
percent Bodipy-positive cells [6]: 12.4 ± 1.6%
percent Bodipy-positive cells [2]: 31.1 ± 5.4%

COC(C)(C)CCCC(C)C/C=C/C(C)=C/C(=O)O (stereo not given) [Methoprene acid]
percent Bodipy-positive cells [3]: 7.42 ± 6.7%

Cl.OCCNCCCOc1cccc(Cl)c1Cl [2,3-DCPE hydrochloride]
percent Bodipy-positive cells [2]: 70.388 ± 0.025%

CCCCCCCCCCCCCCSCC(=O)O [Tetradecylthioacetic acid]
percent Bodipy-positive cells [2]: 24.1 ± 3.6%

CCCn1cnc2c1c(=O)n(CCCCC(C)=O)c(=O)n2C [Propentofylline]
percent Bodipy-positive cells [2]: 19.6 ± 4.1%

CCCc1cc(C(=O)c2ccc(-c3ccccc3)cc2)ccc1OCCCN1CCCc2c(OC(C)(C)C(=O)O)cccc21
percent Bodipy-positive cells [3]: 11.1 ± 0.22%

O=C(O)CN(CCN(CC(=O)O)CC(=O)O)CCN(CC(=O)O)CC(=O)O [Pentetic acid]
percent Bodipy-positive cells: 8.5 ± 3.3%
percent Bodipy-positive cells (library stock concentration: 5.1 mM): 91.9 ± 8.1%

O=C(O)CN(CCN(CC(=O)O)CC(=O)O)CCN(CC(=O)O)CC(=O)O [Diethylenetriaminepentaacetic acid]
percent Bodipy-positive cells [2]: 55.5 ± 3.2%

CC(C)(CO)Cc1cc(C(C)(C)C)c(O)c(C(C)(C)C)c1
percent Bodipy-positive cells [2]: 15.5 ± 0.18%

C#CCN(C)CCCOc1ccc(Cl)cc1Cl
percent Bodipy-positive cells [2]: 38.9 ± 2.1%

C#CCN(C)CCCOc1ccc(Cl)cc1Cl [Clorgyline hydrochloride]
percent Bodipy-positive cells: 43.4 ± 17%
percent Bodipy-positive cells [2]: 56.6 ± 8.3%

CCc1cc2c(c(CC)n1)CCC(=O)N2Cc1ccc(-c2ccccc2-c2nn[nH]n2)cc1 [ZD 7155 hydrochloride]
percent Bodipy-positive cells [2]: 6.64 ± 1%

CC(C)NCC(O)c1cc(O)cc(O)c1 (stereo not given) [Metaproterenol sulfate, orciprenaline sulfate]
percent Bodipy-positive cells: 25.3 ± 5.7%

CC(C)NCC(O)c1cc(O)cc(O)c1 (stereo not given) [Metaproterenol hemisulfate]
percent Bodipy-positive cells [2]: 47.5 ± 20%

CC(C)NCC(O)c1cc(O)cc(O)c1 (stereo not given) [Metaproterenol]
percent Bodipy-positive cells (library stock concentration: 9.5 mM): 4.73 ± 0.26%
percent Bodipy-positive cells [2]: 14.9% and 35.7%

CC(C(=O)Nc1cccc(/N=C/c2c(O)ccc3ccccc23)c1)c1ccccc1 (stereo not given) [Salermide]
percent Bodipy-positive cells [3]: 13 ± 5.2%

CC(=O)/C(C)=N/O [2,3-Butanedione monoxime]
percent Bodipy-positive cells [2]: 34.2 ± 1.1%

COCC(=O)O[C@]1(CCN(C)CCCc2nc3ccccc3[nH]2)CCc2cc(F)ccc2[C@@H]1C(C)C [Mibefradil dihydrochloride]
percent Bodipy-positive cells [2]: 98.3% and 97.7%

O=C(O)CCCCC1CCSS1 (stereo not drawn) [(?)-alpha-Lipoic Acid]
percent Bodipy-positive cells [2]: 17.1 ± 0.98%

O=C(O)C(S)=Cc1c[nH]c2ccc(F)cc12
percent Bodipy-positive cells [1]: 31.4 ± 14%
percent Bodipy-positive cells [2]: 21.7 ± 6.8%

COc1ccc2[nH]c(C(=O)c3ccccc3)cc2c1
percent Bodipy-positive cells [2]: 37.6 ± 1.9%

O=C(/C=C/C=C/c1ccc2c(c1)OCO2)N1CCCCC1 [Piperine]
percent Bodipy-positive cells: 36.2 ± 1.8%
percent Bodipy-positive cells [1]: 10.2 ± 0.47%
percent Bodipy-positive cells (library stock concentration: 7 mM): 17.8 ± 3.4%
percent Bodipy-positive cells [2]: 17.4% and 21.9%

O=c1c2ccccc2nc2n1CCc1c-2[nH]c2ccccc12 [Rutaecarpine]
percent Bodipy-positive cells [1]: 12.5 ± 5%
percent Bodipy-positive cells [2]: 62.5 ± 9.6%
